Results published in PubChem BioAssay AID1794845 (National Center for Advancing Translational Sciences (NCATS), 2023).
The whole screen tested about 6,900 compounds, of which fewer than 10 were called active. Calls follow the shape of the dose curve; as a rule, active = well fitted curve in the direction sought with a large enough effect; inconclusive = small, poorly fitted or top-dose-only effect, or another doubt; inactive = no such curve, though single readings can be large or run the other way. This is one part of the list.

Amino acid sequences for entries named in this document (tags omitted). A change or cut given only in a name is not applied to a line headed by its entry.
UniProt C7C422: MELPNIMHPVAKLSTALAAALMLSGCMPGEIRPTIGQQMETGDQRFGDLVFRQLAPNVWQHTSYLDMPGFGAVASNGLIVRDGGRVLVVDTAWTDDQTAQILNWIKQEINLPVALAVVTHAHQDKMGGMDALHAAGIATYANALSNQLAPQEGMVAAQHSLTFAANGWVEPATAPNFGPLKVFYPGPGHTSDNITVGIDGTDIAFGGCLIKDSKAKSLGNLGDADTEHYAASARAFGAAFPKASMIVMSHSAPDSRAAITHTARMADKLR

The compounds below were run against Metallo-beta-lactamase type 2 (Klebsiella pneumoniae) (UniProt C7C422) (assay: qHTS to identify inhibitors of the New Delhi Metallo-beta-lactamase (NDM): primary screen against the NCATS Gemini Collection). Conditions: NDM-1 enzyme, meropenem hydrolysis, absorbance 300 nm; at 38.4 µM (top of the series) unless noted.
Procedure, shortened: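 Meropenem hydrolysis (50 uM final) by 2 nM NDM-1 read as 300 nm absorbance after 30 min, following >30 min compound–enzyme preincubation in HEPES pH 7.0 with 1 uM ZnSO4 and 0.01% Tween20.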
Also: % of control where 0% means no effect.

Row | SMILES | activity % (negative = inhibition)
1 | COc1ccc(CN2Cc3[nH]cnc3C[C@H]2C(=O)N2CCC(Cc3ccccc3)CC2)cc1 | inactive: 6.6%
2 | Cc1ccc(C)c(NC(=O)N2CCC(n3cnnc3C3CC3)C2)c1 (configuration not stated) | inactive: -1.9%
3 | COC1CCCN(c2cc(-c3cccnc3)nc3c(C)noc23)C1 (configuration not stated) | inactive: 12.9% [at 57.5 µM]
4 | CCn1cc(C(=O)N2C[C@H](CO)C[C@H](CN3CCCC3)C2)c(C)n1 | inactive: -2.87%
5 | COc1ccc(-c2noc(C(=O)NC(C)C)c2[C@H](C)O)cc1 | inactive: 0.0539% [at 57.5 µM]
6 | OCC1CN(c2ncccn2)CC12CCN(Cc1ccsc1)CC2 (configuration not stated) | inactive: 5.64%
7 | COc1ccc(C(=O)N2CC(=O)N(c3ccc(C)cc3)CC2C)c(OC)n1 (configuration not stated) | inactive: -0.619%
8 | CC1CCN(C(=O)CN2C(=O)NC3(CCCCC3)C2=O)CC1 | inactive: 0.688%
9 | COc1ccc(NC(=O)CC2CCCCN(C)C2=O)cc1OC (configuration not stated) | inactive: 2.39%
10 | Cc1cc(C)n(CCC(=O)N2CCC(C3CCN(S(C)(=O)=O)CC3)C2)n1 (configuration not stated) | inactive: -0.0018%
11 | CC(C)CN(Cc1cccnc1)C1CN(S(=O)(=O)Cc2ccccc2F)C1 | inactive: -3.56%
12 | O=C(NC[C@H]1OC[C@@H](NCc2ccccc2O)[C@@H]1O)c1ccc(F)cc1 | inactive: -1.63% [at 57.5 µM]
13 | O=C1NC(=NC2CCCCC2)C2(CCN(CC3CCCCC3)CC2)N1c1cc(F)cc(F)c1 | inactive: 5.03%
14 | O=C(Cc1ccc(C(F)(F)F)cc1)N1CC(COc2ccccc2)C2(C1)CN(C(=O)c1cn[nH]c1)C2 (configuration not stated) | inactive: 3.36%
15 | O=C(N1CCOCC1)N1C2CCC1CN(c1ccc(C(F)(F)F)cc1)C2 | inactive: 1.43%
16 | CC(=O)NC[C@H]1CCN(Cc2ccc(Cl)cc2F)C[C@H]1N(C)C | inactive: -2.48%
17 | CCc1n[nH]c(CC2CCN(C(=O)C3CC3)CC2)n1 | inactive: -8.39%
18 | Cc1nc(CC(=O)N2CCCC3(CCC(=O)N(CCC(C)C)C3)C2)cs1 (configuration not stated) | inactive: -1%
19 | Cc1noc(-c2ccc(N3CCN(Cc4nccn4C)CC3)nc2)n1 | inactive: 10.1%
20 | Cc1ccc(C2(O)CCN(C(=O)CCC3NC(=O)NC3=O)CC2)nc1 (configuration not stated) | inactive: -0.522%
21 | O=C(c1ccc(-c2ccc(N3CCCCCC3)nc2)cc1)N1CCCC1 | inactive: 66.4%

Row | SMILES | activity % (negative = inhibition)
22 | CNC(=O)[C@@H]1CN(C(=O)c2cccc(C)n2)C[C@H]1COC | inactive: 19.6%
23 | O=C(c1ccncc1)N1CC(Oc2ccc(-c3noc(-c4ccccc4)n3)cc2)C1 | inactive: 30.5%
24 | Cc1ccc(CNC(=O)CN2C(=O)C(c3ccccc3)=NC23CCCCC3)cc1 | inactive: 10.2%
25 | FC(F)(F)c1ccc(N2C3CCC2CN(Cc2ccc(-c4cccs4)cc2)C3)cc1 | inactive: -11.4%
26 | C=CCNC(=O)N[C@H]1C[C@H]2C(=O)Nc3ccc(/C=C/c4ccc(OC)cc4)cc3C(=O)N2C1 | inactive: 10%
27 | COc1ccc(-c2cc(N3CCC(NC(=O)c4ccncc4)C3)n[nH]2)cc1 (configuration not stated) | inactive: 11.6%
28 | O=c1ccc(NS(=O)(=O)c2ccccc2)c2n1C[C@H]1C[C@@H]2CN(S(=O)(=O)c2ccccc2)C1 | inactive: 25.2%
29 | COc1cccc([S+](=O)([O-])N2CCC3(CC(C)=NO3)C2)c1 (configuration not stated) | inactive: 5.53% [at 57.5 µM]
30 | Cc1cc(C(=O)N2CCCn3ccnc3C2c2ccccc2)n(C)n1 (configuration not stated) | inactive: -2.37%
31 | O=C(c1cnccn1)N1CCN2C(=O)N(C3CCOCC3)C[C@H]2C1 | inactive: 1.38% [at 57.5 µM]
32 | COc1cccc(CN2Cc3cc(NC(=O)Cc4cccs4)ccc3OCC2=O)c1OC | inactive: 11.7%
33 | Cc1nn2c(c1-c1ccccc1C(C)C)N([S+](=O)([O-])c1ccc(C(C)C)cc1)CCC2 | inactive: 9% [at 57.5 µM]
34 | O=C(CCCc1ccccc1)Nc1ccnn1C1CCN(C(=O)c2ccccc2F)CC1 | inactive: 4.71%
35 | CC(C)N1C(=O)C2(CCN(C(=O)c3ccccc3F)CC2)C1c1ccccc1 (configuration not stated) | inactive: 1.34%
36 | Cc1nn2c(c1-c1ccccc1C(C)C)N(C(=O)c1cccnc1)CCC2 | inactive: 3.01% [at 57.5 µM]
37 | COc1ccccc1CN1CCC(CN(CC(C)C)C(=O)C2C=CCN2)CC1 (configuration not stated) | inactive: -2.2%
38 | CN(Cc1noc(C2CCCC2)n1)c1cc(C2CC(O)C2)ncn1 (configuration not stated) | inactive: -0.467%
39 | COc1cc2nc(-c3cc4c(c(OC)c3)OCCNC4)cc(C)c2cc1OC | inactive: -0.172%
40 | COC(=O)c1c(NC(=O)c2ccccc2)c2cc(NC3CCOCC3)cnc2n1CC1CCCO1 (configuration not stated) | inactive: 3.61%
41 | Cc1nc(C)c(C(=O)N2CCC(C(=O)N3CCCCCCNC(=O)CC3)CC2)s1 | inactive: -0.427%
42 | CC(=O)N1CCC(N[C@@H]2CO[C@H](CNC(=O)c3ccncc3)[C@H]2O)CC1 | inactive: 1.34% [at 57.5 µM]

A stretch from further up, for reference:
Row | SMILES | activity % (negative = inhibition)
37 | COc1ccccc1CN1CCC(CN(CC(C)C)C(=O)C2C=CCN2)CC1 (configuration not stated) | inactive: -2.2%
38 | CN(Cc1noc(C2CCCC2)n1)c1cc(C2CC(O)C2)ncn1 (configuration not stated) | inactive: -0.467%
39 | COc1cc2nc(-c3cc4c(c(OC)c3)OCCNC4)cc(C)c2cc1OC | inactive: -0.172%
40 | COC(=O)c1c(NC(=O)c2ccccc2)c2cc(NC3CCOCC3)cnc2n1CC1CCCO1 (configuration not stated) | inactive: 3.61%

(further entries)

Row | SMILES | activity % (negative = inhibition)
43 | C[C@@H](c1ccccc1)N(C)C(=O)c1cc(COc2cccc(F)c2)[nH]n1 | inactive: 27.1%
44 | COc1ccc(CCC(=O)N2CCCC(n3cc(-c4nc(-c5ccccc5)no4)nn3)C2)cc1 (configuration not stated) | inactive: 18.1%
45 | O=C(Nc1ccc(Oc2ccccc2)cc1)N[C@H]1CO[C@H]2[C@@H]1OC[C@@H]2n1nnnc1Oc1ccc(-n2cncn2)cc1 | inactive: 21.2%
46 | CC(=O)N1CCCN(Cc2ccc3c(c2)OCO3)c2ccccc21 | inactive: 6.47%
47 | O=C(Cc1ccc2c(c1)OCO2)N1CCOCC2(CN(Cc3ccccc3)C2)C1 | inactive: 7.51% [at 57.5 µM]
48 | CC(C)C(=O)N1CCC2(CC1)OC(=O)N(Cc1ccccc1C#N)C2(C)c1ccccc1 (configuration not stated) | inactive: 1.42% [at 57.5 µM]
49 | COc1ccc([C@H]2C[C@@H](O)[C@@H](O)[C@@H]2NC(=O)c2ccccn2)cc1 | inactive: 33.4% [at 57.5 µM]
50 | CCNC(=O)N1CCCCCC1CN1CCC(C)CC1 (configuration not stated) | inactive: 22.6%
51 | CC(C)NC(=O)O[C@@H]1CC[C@]2(C)C(CC[C@@H](O)[C@H]2CC(=O)NCc2ccco2)[C@]1(C)CO (some centres not stated) | inactive: 3%
52 | C[C@H](c1ccccc1)N1C(=O)[C@@H]2CN(C(=O)CC(C)(C)C)CCN2C1=O | inactive: -4.33% [at 57.5 µM]
53 | CC(O)CN1CC2(CCC1=O)CCN(CCCn1ccnc1)CC2 (configuration not stated) | inactive: 1.64%
54 | O=C(C1CC1)N1CCC2(CC1)NC(=O)N(c1cccc(Cl)c1)N2 | inactive: -0.13%
55 | C[C@H](O)c1onc(-c2ccc(F)cc2)c1C(=O)N1CCCC1 | inactive: -1.17% [at 57.5 µM]
56 | CN1CCN([C@H]2CCN(Cc3cccs3)C[C@H]2CCC(=O)O)CC1 | inactive: 47.4%
57 | O=C(C[C@H]1NC(=O)c2ccccc2NC1=O)Nc1ccc(N2CCCS2(=O)=O)cc1 | inactive: 1.72%
58 | Cc1ccc(NC(=O)N2CCCN(CCn3nc4n(c3=O)CCCC4)CC2)cc1F | inactive: 0.991%
59 | Cc1noc(C)c1-c1cn(C)c(=O)n2cc(COc3ccc(Cl)cc3)nc12 | inactive: 10.7% [at 57.5 µM]
60 | COc1ccc(OC)c(S(=O)(=O)Nc2nc3c(s2)C[C@]2(C)CC[C@@H]4[C@H](OC(=O)[C@H]4C)[C@H]2[C@@H]3C)c1 | inactive: 1.44%
61 | COc1ccc(CC(=O)N[C@H]2[C@H](O)[C@H](O)C[C@@H]2c2ccccc2)cc1 | inactive: 16.6% [at 57.5 µM]
62 | CCN1CCN(CC(O)COc2cccc(CNCc3cnn(CC)c3)c2)CC1 (configuration not stated) | inactive: 4.28%
63 | O=C(C1CC1)N1CCn2c(nn(-c3ccc(F)cc3)c2=O)C1 | inactive: 3.77% [at 57.5 µM]

Row | SMILES | activity % (negative = inhibition)
64 | C[S+](=O)([O-])c1cccc(NC(=O)Cc2c[nH]c3ncc(-c4cccnc4)cc23)c1 | inactive: 50.2% [at 57.5 µM]
65 | COc1ccc(CCC(=O)N2CCC(Cc3nc(-c4ccc(OC)cc4)no3)CC2)cc1 | inactive: -1.68%
66 | CCCS(=O)(=O)N1CCC(c2noc(-c3ccccc3)n2)C1 (configuration not stated) | inactive: -2%
67 | COc1ccc(CN2CCC3(C2)C(=NC2CCCCC2)NC(=O)N3c2cc(F)cc(F)c2)cc1 (configuration not stated) | inactive: 8.51%
68 | COc1cc2c(cc1O)NC(=O)CC2c1cn[nH]c1-c1cc(C)ccc1C (configuration not stated) | inactive: 0.433%
69 | CC(C)COc1cc(=O)n2c(c1C(=O)NC1CCCCC1)CCCCC2 | inactive: 27.5%
70 | CS(=O)(=O)N1CCC(OC2CCN(C(=O)c3cccnc3)CC2)CC1 | inactive: -8.58%
71 | CCC1(N2CCN(C(=O)c3ccccc3C(F)(F)F)CC2)CCN(C(=O)C(C)C)C1 (configuration not stated) | inactive: 2.4%
72 | COc1ccc(C(=O)N2CCC3(CC2)CN(c2ccccc2)C3=O)cc1OC | inactive: -1.28%
73 | O=C(C1CCN(c2cnn(Cc3ccccc3)c(=O)c2)C1)N1CCCC1 (configuration not stated) | inactive: 1.93%
74 | CCC(CC)C(=O)NCCc1noc(C)n1 | inactive: -2.09%
75 | Cc1ccc(-c2ncc(C(=O)N3CCC(Nc4ncccn4)CC3)c(=O)[nH]2)cc1 | inactive: 18.3%
76 | COc1cccc(C(=O)N2CCC3(CCNCC3)CC2)c1C | inactive: 18.6%
77 | O=[S+]1([O-])N(c2ccccc2)C[C@@H](O)[C@]12CCN(Cc1ccc(OC(F)F)cc1)C2 | inactive: -12.1%
78 | O=C(c1cccc(F)c1)N1CCCC(CN2CCOCC2)CC1 (configuration not stated) | inactive: 12.2%
79 | COc1cc(CNCCc2ccc(Cl)cc2)ccc1OCC(O)CN1CCOCC1 (configuration not stated) | inactive: -1.82%
80 | CCc1cc(N2CCN(C(=O)[C@H]3CCC[C@@H](O)C3)CC2)ncn1 | inactive: 5.39%
81 | O=C(O)C1=NOC2CN(Cc3nc4ccccc4s3)CC12 (configuration not stated) | inactive: 3.65% [at 57.5 µM]
82 | COc1cccc(CC(=O)N2CCCCCCN(C)C(=O)[C@H]3CCC[C@H]32)c1 | inactive: 12.9%

Of the compounds above, these contain two or more sulfur atoms:
Row | SMILES | activity % (negative = inhibition)
28 | O=c1ccc(NS(=O)(=O)c2ccccc2)c2n1C[C@H]1C[C@@H]2CN(S(=O)(=O)c2ccccc2)C1 | inactive: 25.2%
60 | COc1ccc(OC)c(S(=O)(=O)Nc2nc3c(s2)C[C@]2(C)CC[C@@H]4[C@H](OC(=O)[C@H]4C)[C@H]2[C@@H]3C)c1 | inactive: 1.44%
